This is an account of results in patent publication US20240074473A1, “METHOD FOR INDUCING HYPERTROPHIC MUSCLE FIBERS FOR INDUSTRIAL MEAT PRODUCTION” (Yeda Research and Development Co. Ltd., priority 2021, published 2024).

Series [1] deals with chicken primary myoblasts. Kind of series: Surface area coverage by chicken myofibers. The series is classed as cell-based. The conditions noted are these: 48-hours post treatment, 1 uM ERKi in PM vs DM.
For series [2], the system named is chicken primary myoblasts. Nature of the series: Cell pellet wet weight of chicken muscle product. The series is classed as cell-based. The conditions noted are these: 72 hours post treatment, 1 μM.

Consider `O=C(Nc1ccc2[nH]nc(-c3ccncc3)c2c1)[C@@H]1CCN(CC(=O)N2CCN(c3ccc(-c4ncccn4)cc3)CC2)C1` [SCH772984], for which the “Surface area covered by myofibers” value in series [1] is on record as 45%. The “Increase in cell pellet weight (product mass) compared to DM” value in series [2] was “approximately 40%”; in series [2] (listed as ERKi), 40%.
